Data published in paper doi:10.1101/2024.07.03.601885.
These are yes or no findings as the source states them, for the method shown. For part of these data: In cells and extracts the contact can be indirect. Some entries that bind do so weakly or less than the wild type.

By UniProt entry, the sequences of proteins in these tests, tags left out.
UniProt Q9Z148: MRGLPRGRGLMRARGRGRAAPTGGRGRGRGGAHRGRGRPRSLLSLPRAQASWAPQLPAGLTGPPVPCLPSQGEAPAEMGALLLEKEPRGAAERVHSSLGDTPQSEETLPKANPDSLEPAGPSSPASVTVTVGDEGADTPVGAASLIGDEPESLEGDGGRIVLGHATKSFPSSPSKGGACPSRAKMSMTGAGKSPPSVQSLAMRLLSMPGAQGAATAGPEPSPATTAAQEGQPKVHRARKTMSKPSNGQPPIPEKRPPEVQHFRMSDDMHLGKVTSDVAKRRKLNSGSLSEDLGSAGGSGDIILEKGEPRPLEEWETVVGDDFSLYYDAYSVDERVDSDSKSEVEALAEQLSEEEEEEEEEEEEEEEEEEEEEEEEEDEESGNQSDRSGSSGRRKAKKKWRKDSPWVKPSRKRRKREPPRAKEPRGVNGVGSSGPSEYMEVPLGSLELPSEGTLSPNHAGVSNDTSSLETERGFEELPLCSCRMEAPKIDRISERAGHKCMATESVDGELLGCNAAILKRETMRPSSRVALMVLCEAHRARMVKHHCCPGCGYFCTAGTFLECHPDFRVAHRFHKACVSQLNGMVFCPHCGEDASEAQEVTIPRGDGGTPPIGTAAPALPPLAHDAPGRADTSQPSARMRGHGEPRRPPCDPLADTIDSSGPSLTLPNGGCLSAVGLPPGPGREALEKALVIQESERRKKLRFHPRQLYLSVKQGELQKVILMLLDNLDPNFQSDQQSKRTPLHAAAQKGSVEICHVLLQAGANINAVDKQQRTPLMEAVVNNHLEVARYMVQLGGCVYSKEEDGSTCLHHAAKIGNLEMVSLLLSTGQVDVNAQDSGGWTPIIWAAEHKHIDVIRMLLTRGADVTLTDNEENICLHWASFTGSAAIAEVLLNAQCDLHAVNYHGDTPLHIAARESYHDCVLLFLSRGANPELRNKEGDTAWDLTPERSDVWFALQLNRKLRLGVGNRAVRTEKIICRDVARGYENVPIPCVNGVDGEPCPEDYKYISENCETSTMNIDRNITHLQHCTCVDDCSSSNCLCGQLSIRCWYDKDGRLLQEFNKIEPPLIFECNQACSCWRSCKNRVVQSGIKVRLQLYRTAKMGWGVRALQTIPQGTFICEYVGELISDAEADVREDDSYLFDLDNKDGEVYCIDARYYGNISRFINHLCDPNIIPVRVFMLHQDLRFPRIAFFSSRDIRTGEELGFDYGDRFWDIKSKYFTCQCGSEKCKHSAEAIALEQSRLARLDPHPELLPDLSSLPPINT
UniProt Q61937: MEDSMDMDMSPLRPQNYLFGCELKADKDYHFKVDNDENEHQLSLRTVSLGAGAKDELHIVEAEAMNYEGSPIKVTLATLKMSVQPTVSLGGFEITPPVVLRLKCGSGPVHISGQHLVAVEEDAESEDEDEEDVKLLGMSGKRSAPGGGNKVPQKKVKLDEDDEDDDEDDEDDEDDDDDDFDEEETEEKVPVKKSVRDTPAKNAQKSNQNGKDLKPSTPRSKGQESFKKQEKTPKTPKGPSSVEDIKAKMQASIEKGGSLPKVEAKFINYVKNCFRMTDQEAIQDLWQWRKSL
UniProt P06748: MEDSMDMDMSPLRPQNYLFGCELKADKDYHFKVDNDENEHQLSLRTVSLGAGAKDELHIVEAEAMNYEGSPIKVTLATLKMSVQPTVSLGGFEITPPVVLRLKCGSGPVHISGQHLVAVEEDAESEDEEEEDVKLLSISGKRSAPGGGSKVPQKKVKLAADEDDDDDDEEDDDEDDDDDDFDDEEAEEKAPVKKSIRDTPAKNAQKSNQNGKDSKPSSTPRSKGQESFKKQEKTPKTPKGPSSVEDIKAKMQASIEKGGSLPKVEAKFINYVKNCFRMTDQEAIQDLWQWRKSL

What was measured:
HA-tagged G9a = HA-tagged G9a (UniProt Q9Z148); test: co-IP
[1] = target: nucleophosmin (NPM1), endogenous in mouse ESCs (mouse (endogenous in E14 ESCs)) (UniProt Q61937); test: native gel or EMSA

## NPM1, endogenous in HEK293T cells (from UniProt P06748 1-294)
HA-tagged G9a
  binding: binds

## mCherry-NPM1 wild type (from UniProt Q61937 1-292)
HA-tagged G9a
  binding: binds

## nucleophosmin (NPM1), endogenous in mouse ESCs (from UniProt Q61937 1-292)
[1]
  binding: binds
